Values of other authors in patent US20110200625A1, “PHARMACEUTICAL COMPOSITION” (priority 2010, published 2011).

Conditions: room temperature; cited from earlier work

Compound: CO[C@H]1C[C@@H]2CC[C@@H](C)[C@@](O)(O2)C(=O)C(=O)N2CCCC[C@H]2C(=O)O[C@H]([C@H](C)C[C@@H]2CC[C@@H](O)[C@H](OC)C2)CC(=O)[C@H](C)/C=C(\C)[C@@H](O)[C@@H](OC)C(=O)[C@H](C)C[C@H](C)/C=C/C=C/C=C/1C [rapamycin]
- water-solubility: very poor
